Measured values published in PubChem BioAssay AID1347076 (National Center for Advancing Translational Sciences (NCATS), 2019).
Out of some 400,000 compounds screened, about 13,000 (3.2%) were called active. Inconclusive means that the source gave no clear call. Such entries were picked first, then a sample of the others. Calls follow the shape of the dose curve; as a rule, active = well fitted cell-killing curve with a large enough effect; inconclusive = small, poorly fitted or top-dose-only effect, or effect the other way; inactive = flat fitted curve, though single readings scatter. A potency beside an inconclusive call is a rough fit, not a confirmed value.
% is scaled to controls: 0 for no effect and ±100 for the full control effect; potency is read from the fitted curve at half-maximal effect.

Test: qHTS assay for MDR1-selective chemotherapeutics: Primary screen using the drug-selected MDR subline cells KB-V1; also: nearly all actives have a fitted effect of over 60% in size
Conditions: KB-V1 MDR cells viability, CellTiter-Glo, 72 h; activity change, negative = cytotoxicity: at 46.1 µM (top of the series)
In short: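 Compound-treated KB-V1 multidrug-resistant cells, 72 h, 37 degrees C; viability by CellTiter-Glo. Fitted qHTS curves give the values.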
In the case of `CCOc1ccc(NS(=O)(=O)c2ccc3c(c2)CCN3C(=O)C2CCC2)cc1`, the Potency is reported as inconclusive: 11.6 µM [cytotoxic, partial curve]. With `Cn1c(=NC(=O)C2=NNC(=O)CC2)sc2ccccc21` the Potency was active: 1.46 µM. For `COc1ccc(-c2cc(NC(C)=O)c3ncc(-c4cc(OC)c(OC)c(OC)c4)n3c2)cn1`, the Potency was active: 13 µM. With `COc1cc(OC)c(OC)cc1/C=C/c1ccnc2ccccc12` the Potency was inconclusive: 29.1 µM [cytotoxic, partial curve, poor fit]. In the case of `CSc1nc2[nH]c3c(c2c2nnnn12)CCCC3`, the Potency is reported as inconclusive: 29.1 µM [cytotoxic, single point]. In the case of `CCn1cc(/C=N\NC(=O)c2cc(-c3ccccc3OC)nc3ccccc23)c(C)n1`, the Potency is reported as “inactive”. For `CCCNCC1C(Oc2ccc(Cl)cc2Cl)C(=O)N1c1cccc(C)c1C` (stereo not drawn), the Potency was inconclusive: 23.1 µM [cytotoxic, partial curve, poor fit]. In the case of `Cc1csc(=O)n1CCC(=O)OCC(=O)Nc1cccc(C#N)c1`, the Potency is reported as inconclusive: 11.6 µM [rising, partial curve, poor fit]. For `S=C(Nc1ccccn1)c1ccccn1`, the Potency was inconclusive: 23.1 µM [cytotoxic, single point]. For `COC(=O)[C@H](Cc1c[nH]c2ccccc12)NC(=O)NCc1ccc(OC)cc1`, the Potency was “inactive”. In the case of `CCCn1c(C(C)Nc2nc(-c3ccc(Cl)c([N+](=O)[O-])c3)cs2)nc2ccccc21` (stereo not drawn), the Potency is reported as inconclusive: 10.3 µM [cytotoxic, partial curve]. With `CSc1ccccc1OCc1cc(C(=O)NCCc2ccco2)no1` the Potency was inconclusive: 14.6 µM [cytotoxic, single point]. In the case of `COCCN1C(=O)CCC1(C)c1nnnn1-c1ccc2ccccc2c1` (stereo not drawn), the Potency is reported as “inactive”. For `Cc1ccsc1CN(C)CC(=O)NCC(=O)Nc1ccc(F)c(F)c1F`, the Potency was “inactive”. For `CN1C(=O)CC(c2cn(Cc3ccccc3)c3ccccc23)C1=O` (stereo not drawn), the Potency was inconclusive: 11.6 µM [cytotoxic, partial curve]. For `Cc1ccc(CCN2CC(C(=O)NCCCN3CCCCCC3)CC2=O)cc1` (stereo not drawn), the Potency was inconclusive: 10.3 µM [rising, partial curve, poor fit]. With `CC(=O)c1ccc(S(=O)(=O)NCCc2csc(-c3cccnc3)n2)cc1` the Potency was inconclusive: 13 µM [cytotoxic, partial curve, poor fit]. In the case of `CCOC(=O)c1cc(C#N)c(SC)nc1-c1ccccc1`, the Potency is reported as inconclusive: 18.4 µM [cytotoxic, partial curve, poor fit]. In the case of `FC(F)(F)c1cccc(Sc2cc(C(F)(F)F)nc(-c3ccccn3)n2)c1`, the Potency is reported as active: 16.4 µM. In the case of `Nc1c(Cl)ncnc1N/N=C/c1ccnc2ccccc12`, the Potency is reported as inconclusive: 25.9 µM [rising, single point]. For `Cc1cc(C)c(C#N)c(SCC(=O)NC(C)(C)C)n1`, the Potency was “inactive”. With `O=C(Nc1cccc(-c2cnc3ccccc3n2)c1)C1CC(=O)N(c2ccccc2)C1` (stereo not drawn) the Potency was inconclusive: 14.6 µM [cytotoxic, partial curve]. For `COc1ccc(Cc2noc(CN3CCN(Cc4cccc(Cl)c4)CC3)n2)cc1OC`, the Potency was inconclusive: 14.6 µM [cytotoxic, partial curve, poor fit]. For `CC1(C(=O)NS(=O)(=O)c2cccc(C#N)c2)CCN1C(=O)c1ccco1` (stereo not drawn), the Potency was “inactive”. For `O=C(NC(=S)NNC(=O)c1ccc(Cl)cc1Cl)c1cccnc1`, the Potency was “inactive”. With `CC(C)Cc1cc(C(C)(C)C)ccc1OC(=S)N(C)C` the activity change, negative = cytotoxicity was inconclusive: 1.64%. With `CCCCNc1c(-c2cccc(-c3ccc(OC)cc3)c2)nc2ccc(C)cn12` the Potency was inconclusive: 16.4 µM [cytotoxic, single point]. With `CCc1ccc(OCC(=O)N(Cc2ccc(C(C)C)cc2)C2CCS(=O)(=O)C2)cc1` (stereo not drawn) the Potency was inconclusive: 29.1 µM [cytotoxic, single point]. In the case of `Cc1ccc(NC(=O)CN(C)S(=O)(=O)c2cccc3nsnc23)cc1Cl`, the Potency is reported as “inactive”. With `COc1ccc(NC(=O)c2oc3ccccc3c2NC(=O)c2ccco2)c(OC)c1` the Potency was “inactive”. With `Cc1ccc(C)c(CS(=O)(=O)c2cn(CC(=O)N3CCCCC3)c3ccccc23)c1` the Potency was inconclusive: 29.1 µM [cytotoxic, single point]. With `Cc1ccc(Cl)c(NC(=S)N(CCCN2CCOCC2)Cc2ccco2)c1` the Potency was inconclusive: 23.1 µM [cytotoxic, single point]. In the case of `CCOc1cc(/C=C(\C#N)C(=O)NCc2cccnc2)ccc1O`, the Potency is reported as inconclusive: 2.91 µM [rising, full curve]. In the case of `COc1ccccc1CN1C[C@@H]2C[C@@H](c3cccc(O)c3)N3CCC[C@@]23C1=O`, the Potency is reported as inconclusive: 29.1 µM [cytotoxic, single point]. In the case of `Cc1nn(-c2ccccc2)c(Cl)c1/C=C/C(=O)c1ccc(O)cc1`, the Potency is reported as active: 20.6 µM. In the case of `CCCCNC(=O)c1[nH]c(=O)cnc1-c1ccccc1`, the Potency is reported as “inactive”. With `CNCCOc1ccccc1-c1ccccc1` the Potency was “inactive”. In the case of `Cc1cccc(C(=O)N(CC(=O)Nc2sc(C)c(C)c2C(N)=O)C2CCCC2)c1`, the Potency is reported as inconclusive: 6.51 µM [cytotoxic, full curve, poor fit]. For `C=CCn1c(SC(C)C(=O)NCc2ccc3c(c2)OCO3)nnc1C1CCCCC1` (stereo not drawn), the Potency was inconclusive: 23.1 µM [cytotoxic, single point]. In the case of `COC(=O)CSc1nnc(-c2sc3ccccc3c2Cl)o1`, the Potency is reported as inconclusive: 23.1 µM [rising, single point]. With `O=C1OC(Oc2ccc(Br)cc2)(c2ccccc2)c2ccccc21` (stereo not drawn) the Potency was inconclusive: 29.1 µM [cytotoxic, single point]. For `Cc1nc2ccc(S(=O)(=O)N(C)CC(=O)Nc3ccccc3F)cc2s1`, the Potency was “inactive”. With `COc1ccc(NC(=O)NN2CCN(C)CC2)cc1` the Potency was inconclusive: 6.51 µM [rising, full curve, poor fit]. For `COC(=O)C1=CN(c2ccc(F)cc2)C(N)=C(C#N)C1c1ccc(-c2ccccc2)cc1` (stereo not drawn), the Potency was active: 16.4 µM. In the case of `Cc1ccc(-c2ccc(=O)[nH]n2)cc1`, the Potency is reported as inconclusive: 1.46 µM [cytotoxic, full curve]. With `CCc1ccccc1N(C(=O)c1cccs1)C1C=CS(=O)(=O)C1` (stereo not drawn) the Potency was “inactive”. With `O=C(c1ccc2c(c1)OCO2)N1CCc2ccccc2C1` the Potency was inconclusive: 29.1 µM [cytotoxic, single point]. In the case of `Cn1nnnc1SCC(=O)Nc1ccccc1N1CCCCC1`, the Potency is reported as inconclusive: 23.1 µM [cytotoxic, single point]. In the case of `COc1ccc(NC(=O)C2(C)CCN2CCOc2ccc(C)cc2)cc1OC` (stereo not drawn), the Potency is reported as inconclusive: 14.6 µM [cytotoxic, single point]. In the case of `NC(Cc1ccc(C(F)(F)F)cc1)c1csc(NC(=O)Nc2ccccc2Cc2ccccc2)n1` (stereo not drawn), the Potency is reported as inconclusive: 23.1 µM [cytotoxic, single point]. For `CN(C)c1cc[nH]c(=O)c1C#N`, the Potency was inconclusive: 16.4 µM [rising, partial curve, poor fit]. With `Cc1cc(=O)[nH]c(N/N=C/c2ccc(-c3ccc(F)cc3)o2)n1` the Potency was inconclusive: 18.4 µM [cytotoxic, partial curve]. For `CC(NC(=O)c1ccc(S(=O)(=O)N(C)C)cc1)c1ccc(-n2ccnc2)cc1` (stereo not drawn), the Potency was inconclusive: 3.66 µM [rising, full curve, poor fit]. In the case of `CCN(CC)C(=O)C1=C(C)Nc2nc3ccccc3n2C1c1cccc(OC)c1` (stereo not drawn), the Potency is reported as inconclusive: 2.91 µM [cytotoxic, partial curve, poor fit]. For `CC(Oc1cccnc1[N+](=O)[O-])C(=O)Nc1ccc(F)cc1` (stereo not drawn), the Potency was “inactive”. With `Cc1ccc2c(CC(=O)N(Cc3ccc(N(C)C)cc3)Cc3ccco3)coc2c1C` the Potency was “inactive”. With `O=C(NCc1ccccc1Cl)c1nnc(Cc2cccc(F)c2)o1` the Potency was “inactive”. In the case of `O=S1(=O)CC(N2CCC(Cc3ccccc3)CC2)CN1Cc1ccccc1` (stereo not drawn), the Potency is reported as “inactive”. In the case of `CCN(CC)S(=O)(=O)c1cc(C(=O)Nc2ccc(Cl)cn2)ccc1C`, the Potency is reported as active: 9.2 µM. In the case of `COc1cc(/C=C/C(=O)N2C(=O)c3cccc(N)c3C2=O)cc(OC)c1OC`, the Potency is reported as “inactive”. In the case of `COc1cc2ncnc(NCCc3ccccc3)c2cc1OC`, the Potency is reported as inconclusive: 29.1 µM [cytotoxic, single point]. With `CC(=O)Nc1ccc(NC(=O)CSc2nnnn2-c2ccccc2F)cc1` the Potency was “inactive”. In the case of `Cc1ccc2c(=O)n3c(nc2c1)C(Cc1ccccc1)NC(=O)c1cc2ccccc2cc1-3` (stereo not drawn), the Potency is reported as inconclusive: 23.1 µM [cytotoxic, partial curve]. For `CCc1cccc(CC)c1NC(=O)CNCc1cccs1`, the Potency was “inactive”. With `C=CCOC(=O)C1=C[C@H](c2csc3ccccc23)C[C@H](OCc2ccc(CO)cc2)O1` the Potency was “inactive”. With `COc1cccc(CN(C)C(=O)C2CC(=O)N(c3ccc4c(c3)OCCO4)C2)c1` (stereo not drawn) the Potency was inconclusive: 16.4 µM [cytotoxic, single point]. In the case of `Cc1nc(-c2cccc3ccccc23)ccc1C(=O)O`, the Potency is reported as inconclusive: 29.1 µM [rising, single point]. With `O=C(Cn1cnc2sc(-c3ccccc3)cc2c1=O)NCc1ccco1` the Potency was inconclusive: 29.1 µM [cytotoxic, single point]. With `CCOC(=O)N/N=C/c1c(C)nn(-c2ccccc2Cl)c1Cl` the Potency was “inactive”. For `CCOc1cc(NC(=O)c2ccco2)c(OCC)cc1NC(=O)Cc1ccc(OC)c(OC)c1`, the Potency was inconclusive: 0.58 µM [cytotoxic, full curve]. In the case of `Cn1cncc1C#Cc1ccc2c(=O)c3ccccc3oc2c1`, the Potency is reported as “inactive”. In the case of `COc1ccc(-c2c(C)cc3oc(=O)cc(-c4ccccc4)c3c2C)cc1`, the Potency is reported as inconclusive: 32.6 µM [cytotoxic, partial curve, poor fit]. For `Cc1ccc(CN2CCN(/N=C/c3cccn3C)CC2)c(C)c1`, the Potency was “inactive”.
